The campaign covered roughly 1,200 compounds. About 20 (2%) were called active. Not shown: some 23% with an inconclusive outcome. The call rests on the fitted dose curve; in most records, active means well fitted inhibition curve with a large enough effect; inconclusive means small, poorly fitted or top-dose-only effect; inactive means no such curve, though single readings can be large or run the other way. Some of the results follow.
Target: Transcriptional regulator ERG (Homo sapiens) (UniProt P11308)
Test: qHTS for Small Molecule Inhibitors of the ERG Ets/DNA interaction: HTRF assay against cherry picks
Settings: His-ERG Ets domain with biotin-DNA; series mostly up to 154 µM; activity change, negative = inhibition: at the top concentration
Procedure, shortened: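 Compounds were incubated 10 min at RT with ERG Ets domain and biotinylated DNA (each added as 200 nM solution) in pH 7.5 Tris/KCl/EDTA/DTT buffer. Binding was read as FRET (ex 320, em 615 and 665 nm) between anti-His donor and streptavidin acceptor.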

By UniProt entry, the sequences of proteins in these tests, tags left out. Where a name states a change or a piece, a line headed by the entry shows the natural chain unless it says otherwise.
UniProt P11308: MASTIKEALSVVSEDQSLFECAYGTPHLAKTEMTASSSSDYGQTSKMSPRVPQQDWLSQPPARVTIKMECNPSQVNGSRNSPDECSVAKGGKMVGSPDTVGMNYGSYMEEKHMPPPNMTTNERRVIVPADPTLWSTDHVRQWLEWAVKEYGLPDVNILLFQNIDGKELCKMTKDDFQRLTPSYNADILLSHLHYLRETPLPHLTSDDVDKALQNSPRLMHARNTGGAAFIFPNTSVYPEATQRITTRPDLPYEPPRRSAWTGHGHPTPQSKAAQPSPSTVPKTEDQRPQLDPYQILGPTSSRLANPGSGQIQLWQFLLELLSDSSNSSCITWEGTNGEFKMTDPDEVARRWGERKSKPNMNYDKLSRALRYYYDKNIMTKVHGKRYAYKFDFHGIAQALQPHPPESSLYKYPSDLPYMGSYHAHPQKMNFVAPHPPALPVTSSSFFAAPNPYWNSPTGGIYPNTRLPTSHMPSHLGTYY

Activity change, negative = inhibition, inactive:
O=C(OCC(=O)c1ccc(Cl)cc1Cl)c1cnccn1 -4.24%
OC(c1cc(C(F)(F)F)nc2c(Cl)cc(Cl)cc12)C1CCCCN1 (configuration not stated) -41.6%
Cc1c(OCC(=O)NCC2CCC(C(=O)NCCCO)CC2)ccc2c(-c3ccccc3)cc(=O)oc12 (configuration not stated) -39.8%
CCc1ccc(S(=O)(=O)NC2CC(C)(C)NC(C)(C)C2)cc1 -22.9%
COc1ccccc1NC(=O)N1CCN(C(=O)Nc2ccccc2OC)CC1 -25.8%
C=C(C)[C@@H]1CC=C(C(=O)O)CC1 0.796%
COc1ccc(NC(=O)CSc2nc(C)c3c(c2C#N)CCCC3)cc1 -22.1%
O=C(Nc1ccncc1)c1cn(-c2ccccc2)nc1-c1cccs1 17.1%
Cc1ccc(Cl)cc1NC(=O)c1oc2ccc(S(=O)(=O)N(C)C3CCCCC3)cc2c1C 6.1%
Cc1ccc(OCC(=O)OCC(=O)c2ccccc2)cc1C -5.15%
CCCC(c1nnnn1CS(=O)(=O)c1ccc(C)cc1)N1CCN(CC)CC1 (configuration not stated) -23.3%
CCOC(=O)C(c1ccccc1)C(Nc1ccc(F)cc1)c1ccccn1 (configuration not stated) -17.7%
COC(=O)Cn1c(=NC(=O)CN2C(=O)CCC2=O)sc2cc(S(N)(=O)=O)ccc21 -14.5%
COCC1CCN(Cc2nc(-c3ccc4c(c3)OCO4)no2)C1 (configuration not stated) 1.59%
CC1CC(=O)N(CC(=O)Nc2cccc(Cl)c2)c2ccccc2S1(=O)=O (configuration not stated) -28.9%
Cc1ccc2c(c1)N(CCC(=O)NCCCN1CCCC1)C(=O)CO2 -0.849%
Cc1ccc(NS(=O)(=O)c2cc(Br)cnc2N)c(Cl)c1 -21.4%
Cc1cc(C)cc(-n2ccnc2SCC(=O)Nc2ccc(C)c(Cl)c2)c1 -25.1%
O=C(Nc1c(C(=O)C2CC2)oc2ccccc12)c1ccc(Cl)cc1 -11.9%
CC(CCC(=O)O)C1CCC2C3C(O)CC4CC(O)CCC4(C)C3CC(O)C12C (configuration not stated) -5.84%
O=C(N/N=C/c1cccs1)c1cccs1 -26.8%
Cc1nc(-c2ccc(F)cc2)c(CC(=O)N2CCN(S(=O)(=O)c3cccc(F)c3)CC2)s1 -27.8%
CCc1ccccc1N(CC(=O)NCc1ccco1)C(=O)CCC(=O)Nc1ccccn1 -24%
CCOCCn1c(CN2CCCCC2)nc2c1c(=O)n(C)c(=O)n2C -23%
C[C@H](NC(=O)[C@@H]1Cc2ccccc2CN1C(=O)OC(C)(C)C)C(=O)NC1CCCCC1 -5.84%
O=C(O)c1ccc(CSCc2ccccc2F)o1 -27.1%
CCC1CCC(NC(=O)Nc2cccc(OC)c2)CC1 (configuration not stated) -3.71%
Cc1cccc(Nc2c(O)nc[nH]c2=O)c1 -27.5%
CCc1c(C)sc(NC(=O)OC)c1C(=O)N1CCCCC1 -20.9%
Cc1ccc(CNC(=O)CSCc2ccc(F)cc2)cc1 -23.9%
S=c1nc[nH]c2nc[nH]c12 -36.8%
CC(=O)Nc1ccc(-c2csc(NC(=O)C3CC(=O)N(c4ccc5c(c4)OCCO5)C3)n2)cc1 (configuration not stated) -12.9%
CCOC(=O)C1=C(C)N=c2s/c(=C\c3cc(OC)c(OC)c(OC)c3)c(=O)n2C1/C=C/c1ccccc1 (configuration not stated) -12.1%
CC(=O)Nc1ccc2c(c1)NC(=O)CC2 -12.5%
CC(C)(CO)CNC(=O)c1ccc(OC2CCN(C(=O)C3CC3)CC2)cc1 -13.2%
CC(C)=CCC/C(C)=C/CNC(=O)C[C@H]1C[C@H](C(=O)N2CCCCC2)[C@@]2(CCc3ccccc3)c3[nH]c4cc(-c5ccco5)ccc4c3CCN2C1=O -27.2%
O=C1Nc2cc(C(=O)N3CCOCC3)ccc2SC1N1CCOCC1 (configuration not stated) -30.1%
COc1ccccc1CN1CCCCC1C(=O)O (configuration not stated) -4.93%
COc1ccc(Cl)cc1N=Cc1c(O)c2ccccc2oc1=O -24.1%
CCS(=O)(=O)N1CCC(C(=O)OCC(=O)c2ccc(Br)cc2)CC1 1.49%
Cc1ccccc1-n1c(=O)n(CCc2ccccc2)c(=O)c2[nH]cnc21 -2.33%
O=c1ccc(-c2ccc(S(=O)(=O)Nc3cccc(Br)c3)o2)n[nH]1 -24.7%
C=CCN1C(=O)c2ccc(C(=O)Nc3ccccn3)cc2C1=O -29.2%
COc1cc(OC)c(N(C)S(=O)(=O)c2cccc(C(=O)NC(C)C3CC4CCC3C4)c2)cc1Cl (configuration not stated) -14.9%
Cc1ccc(S(=O)(=O)/N=C(/NC(=S)Nc2c(C)n(C)n(-c3ccccc3)c2=O)c2ccccc2)cc1 -23.4%
CCCN(CC(=O)Nc1ccc(F)c(F)c1F)C(=O)C1CC(=O)N(Cc2ccccc2)C1 (configuration not stated) -22.6%
COC(=O)Nc1ccc(S(=O)(=O)NNC(=O)c2c(O)c3ccccc3n(C)c2=O)cc1 -6.74%
O=C(CCN=C1NS(=O)(=O)c2ccccc21)OCc1ccccc1 -3.29%
Nc1c(C(=O)O)cnn1-c1ccccc1 -28.4%
Cc1ccc(S(=O)(=O)NCC(=O)N(CC(=O)NCC2CCCO2)c2cccc(F)c2)cc1 (configuration not stated) -27%
CCN(Cc1ccccc1)C(=O)CN1C(=O)c2ccccc2C1=O -28.6%
O=C(COc1coc(CN2CCCc3ccccc32)cc1=O)Nc1cccc([N+](=O)[O-])c1 -33%
COC(=O)c1ccccc1NC(=O)c1cc(C2CC2)on1 -14.3%
CC1=C(C#N)CCC(=O)N1Cc1c(F)cccc1Cl -12.7%
Cc1ccc(S(=O)(=O)N2CCC[C@H]2C(=O)NC2CCCCC2)cc1 -19.9%
O=C(NCCCc1ccccc1)C(=O)NCC1OCCN1S(=O)(=O)c1cc(F)ccc1F (configuration not stated) -21.2%
Cc1cccc(-c2oc3ccccc3c2-c2ccc3c(c2)OCO3)c1 -23.8%
CCCn1c(SCC(=O)Nc2cccc(C(=O)OCC)c2)nnc1-c1ccoc1C -22.8%
CC(C)=CCOc1ccc2ccc(=O)oc2c1 -25.5%
CC(CCc1ccccc1)NC(=S)NC1CCCCC1 (configuration not stated) -11.6%
Cc1ccc(-n2c(CCC(=O)O)ccc2-c2cccs2)cc1Cl 2.02%
c1ccc2oc(-c3ccn[nH]3)cc2c1 -12.9%
O=C(O)c1ccccc1Nc1cccc(OCc2ccc3ccccc3n2)c1 -19.3%
CCOc1ccc(-c2nnc(NC(=O)Cc3cc(OC)c(OC)c(OC)c3)o2)cc1 -3.5%
CCOC(=O)c1ccc(NC(=S)N2CCSC2c2ccc(OC)cc2)cc1 (configuration not stated) -25.1%
COc1ccc(-c2c/c(=N\c3nc(-c4ccccc4)c(C)s3)c3ccccc3o2)cc1O -22.7%
O=C(OCCOCCN=C1NS(=O)(=O)c2ccccc21)c1ccccc1Br -32.5%
O=C(O)c1ccc(Nc2ncnc3scc(-c4ccccc4)c23)cc1 20.5%
CN(C)CCCNc1c2ccccc2nc2ccccc12 -88.9%
Cc1ccc(S(=O)(=O)N2[C@@H](c3ccccc3F)C(C(=O)O)=CC[C@H]2c2cccs2)cc1 -24.2%
COc1cccc(CN2CCNC(=O)C2CC(=O)N(Cc2cnn(C)c2)C(C)C)c1 (configuration not stated) -30.2%
O=C(C[C@H]1C/C=C\CC[C@@H](Cc2ccc(F)cc2)C(=O)OC[C@H]2CCCN2C1=O)N[C@H](CO)Cc1ccccc1 -13.8%
Nc1ccncc1N 0.849%
CN1C2CCC1CC(NC(=O)CSCc1ccc(Cl)cc1Cl)C2 (configuration not stated) -29.4%
CCOC(=O)C1(Cc2ccccc2Cl)CCN(S(=O)(=O)N(C)C)CC1 3.4%
CCNc1nc(OCC)nc(N2CCC(Cc3ccccc3)CC2)n1 4.46%
CCCCN1C(N)=NC[C@@H]1CC1CCCCC1 -20.6%
Cc1ccc(COC(=O)CCN=C2NS(=O)(=O)c3ccccc32)cc1 -23.1%
COc1ccc(C(=O)NCC(=O)N2CCN(C(=O)c3ccco3)CC2)cc1 7.96%
Cc1ccccc1NC(=O)COc1ccc2oc(=O)cc(C)c2c1 -0.371%
CC(C[N+](C)(C)C)OC(N)=O (configuration not stated) -29.3%
Cc1ccc(C(=O)N2CCN(c3ccc(NC(=O)CSc4ccc(Cl)cc4)cc3)CC2)cc1 -5.62%
Cc1ccc(-c2nnn(CC(=O)N(c3ccccc3)C(C(=O)NCC3CCCO3)c3ccc(F)cc3)n2)o1 (configuration not stated) -28%
CCOC(=O)N1CCC(NC(=O)c2ccc(CO)c(C(=O)NC3CCN(C(=O)OCC)CC3)c2)CC1 -24.2%
CNC(=S)N/N=C/c1c(C)nn(-c2ccccc2)c1Cl -37.2%
Cc1cc(-c2n[nH]c(=S)n2-c2ccc(C)c(C)c2)no1 -9.55%
Cc1ccc(C)c(NC(=O)COC(=O)c2cc(=O)c3ccccc3o2)c1 -41.9%
CC(=O)NC(CC(=O)Nc1nc(-c2ccccc2)c(C(C)=O)s1)c1ccccc1 (configuration not stated) -23%
CN(C)S(=O)(=O)c1ccc(C(=O)Nc2ccc(Cl)cc2)cc1 -10.2%
COc1ccc(-c2cc3ncc(C(C)=O)c(C)n3n2)cc1 8.12%
OC(CN1CCCCC1)Cn1c2ccccc2c2cc(Br)ccc21 (configuration not stated) -1.59%
CCNC(=O)COc1ccc(/C=N/NC(=O)c2cccnc2)cc1OC -34.7%
c1ccc(SSc2ccccc2)cc1 -0.584%
Cn1ncc(Cl)c1C(=O)N1CCN(C23CC4CC(CC(C4)C2)C3)CC1 -11.7%
COc1ccc(C)cc1S(=O)(=O)Nc1cccc(C)c1 -18.3%
CN(C(=O)c1ccncc1)C1CCS(=O)(=O)C1 (configuration not stated) -23.9%
COc1ccc(-c2nc3n(n2)C(c2ccccc2OC)C(C(=O)Nc2cccnc2)=C(C)N3)cc1 (configuration not stated) 6.74%
COC(=O)[C@H](Cc1ccccc1)NC(=O)C1(OC(C)=O)CC(OC(C)=O)C(OC(C)=O)C(OC(C)=O)C1 (some centres not stated) -7.96%
CC1CCN(C(=O)COC(=O)c2ccc(=O)n(Cc3ccccc3)n2)CC1 -13%
CC1=CC(=O)C(C(C)C)=C/C1=C(\c1cc(C(C)C)c(OP(=O)(O)O)cc1C)c1ccccc1C(=O)O -5.84%
COc1ccc(CCC(=O)NNC(=O)c2cc(Cl)ccc2OC)cc1 -18.2%
CN(C)C(CNC(=O)/C=C/c1cccc(Cl)c1)c1ccccc1 (configuration not stated) -24.2%
Cc1csc(NC(=O)CSc2nnc(NC(=O)COc3ccc(Cl)cc3)s2)n1 -17.3%
O=C(COc1ccccc1Cl)Nc1ccc(CN2CCCCC2)cc1 -18.8%
COc1cccc(-c2nnc(NC(=O)C(C)C)o2)c1 2.65%
Cc1ccccc1C(=O)NCCCc1ccccc1 11.7%
O=C(CNC(=O)c1ccccc1Cl)OCC(=O)N1CCc2ccccc21 4.77%

Grouped by structure, those above with two or more sulfur atoms (8)
Activity change, negative = inhibition, inactive:
COC(=O)Cn1c(=NC(=O)CN2C(=O)CCC2=O)sc2cc(S(N)(=O)=O)ccc21 -14.5%
O=C(N/N=C/c1cccs1)c1cccs1 -26.8%
Cc1nc(-c2ccc(F)cc2)c(CC(=O)N2CCN(S(=O)(=O)c3cccc(F)c3)CC2)s1 -27.8%
Cc1ccc(S(=O)(=O)/N=C(/NC(=S)Nc2c(C)n(C)n(-c3ccccc3)c2=O)c2ccccc2)cc1 -23.4%
CCOC(=O)c1ccc(NC(=S)N2CCSC2c2ccc(OC)cc2)cc1 (configuration not stated) -25.1%
Cc1ccc(S(=O)(=O)N2[C@@H](c3ccccc3F)C(C(=O)O)=CC[C@H]2c2cccs2)cc1 -24.2%
c1ccc(SSc2ccccc2)cc1 -0.584%
Cc1csc(NC(=O)CSc2nnc(NC(=O)COc3ccc(Cl)cc3)s2)n1 -17.3%
